Assay [1] addresses T1, Kin1:GFP (Kindlin 1 fused to GFP) (UniProt Q9BQL6).
T1 sequence: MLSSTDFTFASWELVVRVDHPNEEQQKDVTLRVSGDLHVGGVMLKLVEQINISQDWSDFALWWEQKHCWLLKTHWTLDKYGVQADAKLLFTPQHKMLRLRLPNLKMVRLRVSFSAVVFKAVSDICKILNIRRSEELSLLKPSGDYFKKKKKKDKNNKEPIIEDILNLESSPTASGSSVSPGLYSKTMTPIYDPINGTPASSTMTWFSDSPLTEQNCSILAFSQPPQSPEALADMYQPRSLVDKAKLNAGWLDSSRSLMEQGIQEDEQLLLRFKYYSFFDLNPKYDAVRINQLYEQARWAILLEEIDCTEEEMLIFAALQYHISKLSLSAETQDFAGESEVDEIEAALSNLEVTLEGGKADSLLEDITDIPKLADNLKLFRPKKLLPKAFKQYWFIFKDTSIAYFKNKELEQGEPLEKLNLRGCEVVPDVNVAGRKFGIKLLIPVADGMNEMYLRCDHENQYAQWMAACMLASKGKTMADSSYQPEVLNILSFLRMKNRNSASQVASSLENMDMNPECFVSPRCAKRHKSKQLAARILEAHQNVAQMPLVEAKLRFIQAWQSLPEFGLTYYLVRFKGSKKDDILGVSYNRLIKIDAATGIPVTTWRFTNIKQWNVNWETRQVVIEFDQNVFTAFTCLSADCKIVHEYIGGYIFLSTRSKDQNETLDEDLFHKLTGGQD
As to the kind of experiment: pull-down; GFP pull down with GFP-Trap agarose beads from 0.25-1 mg lysate (NP40 buffer: 25 mM Tris, 150 mM NaCl, 0.5% NP40, pH 7.6) of cells expressing Kin1:GFP or GFP, room temperature 30-45 min, blots of the bound proteins; also after treatment of the cells with DMSO, tubacin, BI2536 or nocodazole.

Chains of the proteins cited; added tags and fusions are not shown.
UniProt Q9UBN7: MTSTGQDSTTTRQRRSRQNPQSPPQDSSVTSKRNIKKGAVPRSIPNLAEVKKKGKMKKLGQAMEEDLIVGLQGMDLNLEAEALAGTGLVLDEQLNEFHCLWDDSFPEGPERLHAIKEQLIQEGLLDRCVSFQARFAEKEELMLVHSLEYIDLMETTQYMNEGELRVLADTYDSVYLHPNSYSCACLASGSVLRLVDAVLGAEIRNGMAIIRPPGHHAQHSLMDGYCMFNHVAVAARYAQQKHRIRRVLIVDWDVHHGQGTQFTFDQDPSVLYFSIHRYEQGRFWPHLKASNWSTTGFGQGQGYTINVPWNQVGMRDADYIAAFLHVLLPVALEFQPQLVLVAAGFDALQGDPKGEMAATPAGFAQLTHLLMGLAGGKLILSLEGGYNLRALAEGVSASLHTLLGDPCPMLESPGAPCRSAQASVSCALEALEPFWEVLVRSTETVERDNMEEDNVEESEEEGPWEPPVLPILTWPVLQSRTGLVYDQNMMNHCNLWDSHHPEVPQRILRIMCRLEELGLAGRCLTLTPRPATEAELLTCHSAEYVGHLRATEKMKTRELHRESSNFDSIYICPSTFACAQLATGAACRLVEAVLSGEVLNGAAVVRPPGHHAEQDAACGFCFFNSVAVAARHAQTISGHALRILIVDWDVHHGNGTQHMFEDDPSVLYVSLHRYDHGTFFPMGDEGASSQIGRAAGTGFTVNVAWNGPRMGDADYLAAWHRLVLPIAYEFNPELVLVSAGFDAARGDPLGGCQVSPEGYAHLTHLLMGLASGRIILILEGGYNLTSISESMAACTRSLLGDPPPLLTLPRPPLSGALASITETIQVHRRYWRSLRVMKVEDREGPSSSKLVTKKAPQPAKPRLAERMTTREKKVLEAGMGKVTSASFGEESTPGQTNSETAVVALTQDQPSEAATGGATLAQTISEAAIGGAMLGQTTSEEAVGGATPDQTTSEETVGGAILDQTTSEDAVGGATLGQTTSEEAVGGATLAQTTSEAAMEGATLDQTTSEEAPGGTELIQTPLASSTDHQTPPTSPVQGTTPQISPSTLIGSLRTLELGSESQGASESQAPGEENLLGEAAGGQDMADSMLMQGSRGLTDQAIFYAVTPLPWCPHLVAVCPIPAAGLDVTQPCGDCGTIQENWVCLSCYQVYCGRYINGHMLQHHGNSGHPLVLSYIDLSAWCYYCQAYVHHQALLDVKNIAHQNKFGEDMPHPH
UniProt P53350: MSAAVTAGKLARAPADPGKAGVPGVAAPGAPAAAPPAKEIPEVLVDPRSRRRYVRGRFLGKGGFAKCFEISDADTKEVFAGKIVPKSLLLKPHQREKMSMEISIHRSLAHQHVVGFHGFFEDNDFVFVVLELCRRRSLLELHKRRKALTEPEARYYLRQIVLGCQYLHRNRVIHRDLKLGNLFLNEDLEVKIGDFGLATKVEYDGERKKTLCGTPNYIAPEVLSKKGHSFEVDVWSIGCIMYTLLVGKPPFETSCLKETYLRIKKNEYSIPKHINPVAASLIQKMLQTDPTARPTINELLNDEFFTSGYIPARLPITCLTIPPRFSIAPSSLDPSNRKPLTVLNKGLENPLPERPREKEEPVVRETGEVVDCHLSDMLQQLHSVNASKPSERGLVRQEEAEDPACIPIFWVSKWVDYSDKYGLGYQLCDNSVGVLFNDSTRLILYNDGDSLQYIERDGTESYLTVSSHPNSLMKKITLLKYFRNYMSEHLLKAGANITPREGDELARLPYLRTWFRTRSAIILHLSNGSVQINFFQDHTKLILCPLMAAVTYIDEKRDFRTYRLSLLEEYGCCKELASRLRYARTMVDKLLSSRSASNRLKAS

The target in assay [2] is T2, GST:Kin1 (Kin1 fused to GST) (UniProt Q9BQL6).
T2 sequence: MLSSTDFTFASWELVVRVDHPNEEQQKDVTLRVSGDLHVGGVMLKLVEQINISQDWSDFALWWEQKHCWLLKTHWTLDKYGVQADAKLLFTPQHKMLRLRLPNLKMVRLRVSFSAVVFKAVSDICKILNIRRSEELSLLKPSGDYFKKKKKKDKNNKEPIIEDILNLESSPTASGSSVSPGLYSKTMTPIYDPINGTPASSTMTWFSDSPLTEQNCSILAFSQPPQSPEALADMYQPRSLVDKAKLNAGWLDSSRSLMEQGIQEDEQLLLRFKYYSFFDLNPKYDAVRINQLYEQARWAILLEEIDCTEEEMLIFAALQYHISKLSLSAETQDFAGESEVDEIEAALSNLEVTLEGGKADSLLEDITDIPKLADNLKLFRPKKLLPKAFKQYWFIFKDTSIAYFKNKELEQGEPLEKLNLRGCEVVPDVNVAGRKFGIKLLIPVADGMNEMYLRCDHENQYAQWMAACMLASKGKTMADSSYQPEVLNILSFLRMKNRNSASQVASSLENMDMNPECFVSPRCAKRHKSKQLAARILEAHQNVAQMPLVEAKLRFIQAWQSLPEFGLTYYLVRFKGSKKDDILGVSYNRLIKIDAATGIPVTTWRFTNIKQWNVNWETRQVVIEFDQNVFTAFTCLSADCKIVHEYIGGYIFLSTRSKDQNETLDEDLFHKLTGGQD
Briefly: pull-down; in vitro binding assay: recombinant HDAC6 (100 ng) with GST:Kin1 or GST alone in PBS + 0.1% Triton X-100, 30 min, room temperature; both purified.

Assay [3] concerns the target HDAC6 (histone deacetylase 6), endogenous (human (endogenous in MDA-MB-231)) (UniProt Q9UBN7). As to the kind of experiment: co-IP; lysate (NP40 buffer) incubated with agarose beads pre-conjugated with anti-HDAC6, anti-al-tub or anti-ac-tub antibody, room temperature 30-45 min; blot for endogenous Kin1.

Results are given in words; binding and its absence hold for the method and conditions named. For some of these results: In cells and extracts the contact can be indirect. Some binding calls cover weakened binding; strength is not graded here. For some of these results: Sequences can lack the tags named with a protein.

Drawing on paper PMC4991666, this text covers binding for 4 molecules.

On to “HDAC6 (histone deacetylase 6), endogenous (from UniProt Q9UBN7 1-1215) (enzyme)”, for which the binding result in assay [1] is reported as “binds”.

With “Plk1, endogenous (from UniProt P53350 1-603) (enzyme)”, in assay [1], the binding result is “binds”.

Turning to “full-length recombinant HDAC6 (from UniProt Q9UBN7 1-1215) (enzyme)”, the binding entry in assay [2] is recorded as “binds”.

B1: Kindlin 1 (Kin1), endogenous (protein, UniProt Q9BQL6 1-677)
chain: MLSSTDFTFASWELVVRVDHPNEEQQKDVTLRVSGDLHVGGVMLKLVEQINISQDWSDFALWWEQKHCWLLKTHWTLDKYGVQADAKLLFTPQHKMLRLRLPNLKMVRLRVSFSAVVFKAVSDICKILNIRRSEELSLLKPSGDYFKKKKKKDKNNKEPIIEDILNLESSPTASGSSVSPGLYSKTMTPIYDPINGTPASSTMTWFSDSPLTEQNCSILAFSQPPQSPEALADMYQPRSLVDKAKLNAGWLDSSRSLMEQGIQEDEQLLLRFKYYSFFDLNPKYDAVRINQLYEQARWAILLEEIDCTEEEMLIFAALQYHISKLSLSAETQDFAGESEVDEIEAALSNLEVTLEGGKADSLLEDITDIPKLADNLKLFRPKKLLPKAFKQYWFIFKDTSIAYFKNKELEQGEPLEKLNLRGCEVVPDVNVAGRKFGIKLLIPVADGMNEMYLRCDHENQYAQWMAACMLASKGKTMADSSYQPEVLNILSFLRMKNRNSASQVASSLENMDMNPECFVSPRCAKRHKSKQLAARILEAHQNVAQMPLVEAKLRFIQAWQSLPEFGLTYYLVRFKGSKKDDILGVSYNRLIKIDAATGIPVTTWRFTNIKQWNVNWETRQVVIEFDQNVFTAFTCLSADCKIVHEYIGGYIFLSTRSKDQNETLDEDLFHKLTGGQD
Turning to B1, the binding entry in assay [3] was “binds”.
